Assay results published in paper PMC11018632.
No constants are given. Whether binding was seen depends on the method and setting. Binding seen in cells or lysates may run through a third protein. Some results given as binding are weak or reduced against the parent protein; the word gives no strength. Sequences can lack the tags named with a protein.

Sequences of proteins named here, by UniProt entry; tags and fusion partners are left off. A change or cut given only in a name is not applied to a line headed by its entry.
UniProt Q96SW2: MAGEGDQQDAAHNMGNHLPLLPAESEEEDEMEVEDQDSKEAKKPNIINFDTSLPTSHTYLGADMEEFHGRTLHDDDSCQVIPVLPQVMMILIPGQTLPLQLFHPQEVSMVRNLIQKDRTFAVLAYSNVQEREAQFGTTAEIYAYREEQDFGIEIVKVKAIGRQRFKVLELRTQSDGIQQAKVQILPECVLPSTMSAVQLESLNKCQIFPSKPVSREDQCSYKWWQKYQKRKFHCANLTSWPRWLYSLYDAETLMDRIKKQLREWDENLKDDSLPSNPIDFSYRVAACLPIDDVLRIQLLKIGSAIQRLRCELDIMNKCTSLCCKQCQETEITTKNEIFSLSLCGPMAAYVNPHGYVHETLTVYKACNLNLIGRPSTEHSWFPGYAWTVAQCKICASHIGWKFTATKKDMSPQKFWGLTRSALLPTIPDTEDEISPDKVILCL
UniProt P21554: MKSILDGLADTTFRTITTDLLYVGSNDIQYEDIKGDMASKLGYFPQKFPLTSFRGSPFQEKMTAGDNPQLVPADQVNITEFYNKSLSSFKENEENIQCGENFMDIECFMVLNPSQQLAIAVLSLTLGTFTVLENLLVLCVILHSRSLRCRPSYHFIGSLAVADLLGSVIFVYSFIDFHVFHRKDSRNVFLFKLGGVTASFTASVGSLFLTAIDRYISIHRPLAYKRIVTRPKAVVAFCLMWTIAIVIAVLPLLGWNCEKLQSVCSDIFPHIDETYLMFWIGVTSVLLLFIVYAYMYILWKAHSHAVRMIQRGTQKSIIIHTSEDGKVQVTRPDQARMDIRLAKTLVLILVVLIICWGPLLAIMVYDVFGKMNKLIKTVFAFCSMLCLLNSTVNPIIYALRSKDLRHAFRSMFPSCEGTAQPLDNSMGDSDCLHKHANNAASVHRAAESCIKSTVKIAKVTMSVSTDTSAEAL

Target: human 3xHA-CRBN (human) (UniProt Q96SW2)
Assay: co-IP; HEK-293T cells, transfected; lysates in GST buffer (50 mM Tris-HCl, 10% glycerol, 100 mM NaCl, 2 mM MgCl2, 1% NP-40, pH 7.4); IP with anti-HA agarose

- binding: binds
Binder: CIKSTVKIAKVT (domain or fragment, UniProt P21554 449-460) [GFP-CB1R-CTD chimaera with the mid/distal CB1R-CTD stretch aa 449-460]
